Earlier results in PMC11912471, “Design, Synthesis, and Biological Activity of Novel Ornithine Decarboxylase (ODC) Inhibitors” (Journal of Medicinal Chemistry, 2025).

Details: cited from earlier work

NCCC[C@H](N)C(=O)O [ornithine]
pKa of amino group (ornithine α-amino group, putrescine nitrogen): ~8.7 | pKa printed in Figure 1 (ornithine α-amino, putrescine): ~ 8.5
